Data source: PubChem BioAssay AID504791 (Drosophila RNAi Screening Center, 2011)
The deposit covers about 23,000 reagents; below is a random part of those with a known target gene and a result. In the full data, 199 (0.86%) are marked active. 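Plate-scaled ratios behind the calls are not deposited; printed light signals are raw; many rows marked increased or decreased are still called inactive.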 A number with no mark means an inactive call. Reagents against one gene are numbered here. Names joined by + are all predicted targets of the reagent. The record does not give: the direction of the score.

Assay: 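Genes of the fly required for silencing by miRNA, siRNA or endo-siRNA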 (primary screen)
Cell system: Drosophila S2-derived reporter cells
Reagent: long dsRNA against Drosophila genes, about 150-250 ng dsRNA per well (siRNA assay); about 80-120 ng (miRNA assay)
Time to read-out: about 5 days (siRNA assay); about 4 days (miRNA assay)
Conditions: copper sulfate induction of reporters: 25 µM (siRNA assay); 200 mM stated (miRNA assay), 1-2 days before reading
Measurement: 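Dual luciferase assay: Renilla to firefly signal ratio in each well, scaled to the mean ratio of its plate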
Hit rule: 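a well was a first-pass pick when its plate-scaled ratio rose above 1.5 (siRNA assay) or 1.6 (miRNA assay), or dropped below 0.6; a gene counted only if two separate dsRNAs agreed on retest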

| target gene | reagent | stable siRNA reporter change | miRNA reporter change | stable assay Renilla, run 1 (luminescence) | stable assay firefly, run 1 (luminescence) |
| --- | --- | --- | --- | --- | --- |
| CG30056 | 1 | – | – | 9094 | 5.89e5 |
| RpS29 + snoRNA:Psi18S-1275 | 1 | – | – | 6626 | 3.42e5 |
| CG14777 | 1 | – | – | 5530 | 4.18e5 |
| CG13243 | 1 | reporter ratio raised past the hit cutoff (active) | – | 9906 | 3.07e5 |
| CG32448 | 1 | – | – | 3683 | 4.53e5 |
| CG12115 | 1 | – | – | 6023 | 5.32e5 |
| dnd | 1 | – | – | 7326 | 3.78e5 |
| Rab19 | 1 | – | – | 5387 | 4.78e5 |
| snz | 1 | – | – | 6623 | 4.06e5 |
| CG14253 | 1 | – | – | 6624 | 4.18e5 |
| CG33160 | 1 | – | – | 5499 | 3.51e5 |
| CG14212 | 1 | – | – | 5252 | 3.16e5 |
| Vps8 | 1 | – | – | 5263 | 3.59e5 |
| G6P | 1 | – | – | 6243 | 4.48e5 |
| CG7903 | 1 | – | – | 6327 | 3.49e5 |
| c12.2 | 1 | – | – | 6290 | 5.61e5 |
| TwdlC | 1 | – | – | 8087 | 4.57e5 |
| CG33642 | 1 | – | – | 4763 | 3.35e5 |
| CG42843 (retired record) | 1 | – | – | 5283 | 4.64e5 |
| CG42843 (retired record) | 2 | – | – | 7135 | 4.47e5 |
| CG42843 (retired record) | 3 | – | – | 6946 | 2.95e5 |
| pre-mod(mdg4)-W + pre-mod(mdg4)-Y + mod(mdg4) + 3 more | 1 | – | – | 8247 | 4.88e5 |
| CG32259 | 1 | – | – | 5016 | 3.37e5 |
| CG33143 | 1 | – | – | 5475 | 3.42e5 |
| CG33143 | 2 | – | – | 6286 | 3.07e5 |
| Ugt317A1 | 1 | – | – | 6184 | 4.17e5 |
| mmd | 1 | – | – | 5503 | 3.79e5 |
| mmd | 2 | – | – | 5492 | 3.69e5 |
| mmd | 3 | – | – | 6036 | 4.04e5 |
| mmd | 4 | – | – | 5654 | 4.05e5 |
| CG15745 (retired record) | 1 | – | – | 4311 | 3.51e5 |
| CG10413 | 1 | – | – | 26007 | 1.23e6 |
| Ugt305A1 | 1 | – | – | 6004 | 2.98e5 |
| COX7A | 1 | – | – | 5918 | 5.54e5 |
| CG15390 | 1 | – | – | 7694 | 3.82e5 |
| CG3091 | 1 | – | – | 7314 | 5.39e5 |
| CG15226 (retired record) | 1 | – | – | 6586 | 4.42e5 |
| CG15226 (retired record) | 2 | – | – | 6755 | 4.13e5 |
| Cnx14D | 1 | – | – | 5764 | 5.09e5 |
| Pabp2 | 1 | – | – | 6550 | 3.46e5 |
| spel1 | 1 | – | – | 7631 | 4.17e5 |
| CG1074 | 1 | reporter ratio raised past the hit cutoff | – | 6051 | 2.01e5 |
| Neb-cGP | 1 | – | – | 5359 | 5.20e5 |
| mRpL23 | 1 | – | – | 6398 | 4.26e5 |
| snRNP-U1-C | 1 | reporter ratio raised past the hit cutoff (active) | reporter ratio raised past the hit cutoff | 16638 | 2.86e5 |
| ppk5 | 1 | – | – | 5224 | 3.79e5 |
| GstE7 | 1 | – | – | 9555 | 3.11e5 |
| CG12531 | 1 | – | – | 6467 | 4.65e5 |
| CG33459 | 1 | – | – | 6155 | 4.19e5 |
| spoon | 1 | – | – | 7504 | 4.45e5 |
| CG32074 | 1 | – | – | 9761 | 5.27e5 |
| l(3)80Fj | 1 | – | – | 4500 | 3.11e5 |
| l(3)80Fj | 2 | – | – | 7326 | 5.13e5 |
| zen | 1 | – | – | 7339 | 3.83e5 |
| Mst84B | 1 | – | – | 6027 | 3.10e5 |
| lds | 1 | – | – | 6343 | 3.67e5 |
| CG7381 | 1 | – | – | 9035 | 5.12e5 |

In a second layout: 5 of the entries above.
target gene,reagent,stable siRNA reporter change,miRNA reporter change,"stable assay Renilla, run 1 (luminescence)","stable assay firefly, run 1 (luminescence)"
CG42843 (retired record),2,,,7135,4.47e5
CG42843 (retired record),3,,,6946,2.95e5
pre-mod(mdg4)-W + pre-mod(mdg4)-Y + mod(mdg4) + 3 more,1,,,8247,4.88e5
CG32259,1,,,5016,3.37e5
CG33143,1,,,5475,3.42e5
